{
  "source": "patent US11759495B2",
  "about": "“Upregulation of therapeutic T regulatory cells and suppression of suicidal ideations in response to inflammation by administration of nutraceutical compositions alone or combined with minocycline” (Therapeutic Solutions International, Inc., priority 2020, dated 2023)",
  "key": {"T regulatory cells": {"test_system": "T regulatory cells", "experiment": "Number of T regulatory cells by FoxP3 cell quantification after LPS challenge", "assay_type": "in vivo, BALB/c mice", "conditions": "minocycline coadministered with QUADRAMUNE"}, "[1]": {"test_system": "anti-CD3 anti-CD28 activated T cells", "experiment": "Activity of T regulatory cells (inhibition of anti-CD3 anti-CD28 activated T cells; IL-6 production)", "assay_type": "in vivo, BALB/c mice", "conditions": "minocycline coadministered with QUADRAMUNE"}},
  "note": "At least one structure is not confirmed: it was looked up by name or label, or the drawing left a doubt.",
  "data": [
    {"smiles": "CN(C)c1ccc(O)c2c1C[C@H]1C[C@H]3[C@H](N(C)C)C(O)=C(C(N)=O)C(=O)[C@@]3(O)C(O)=C1C2=O", "note": "[minocycline]", "values": [
      {"measurement": "generation of Treg cell numbers", "setting": "T regulatory cells", "value": "further augments generation of Treg cell numbers"},
      {"measurement": "Treg activity", "setting": "[1]", "value": "augmentation of activity"}
    ]}
  ]
}
